Laboratory results: PubChem BioAssay AID1259254 (NCATS, 2017)
In all, the deposit lists about 59,000 reagents; below is a random part of them. In the full data, about 1,550 (2.6%) are marked active. 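G2 share is only a proxy for re-replication; each gene was hit by three separate siRNAs, and active genes were retested.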 Reagents against one gene are numbered here. Not all columns of the deposit are shown. Not stated in the record: the amount of reagent.

Test: 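Genome-wide screen for genes that prevent DNA re-replication in cancer cells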 (primary screen)
System: human HCT116 colorectal cancer cells
Reagents: single siRNA against human genes
Time to read-out: 3 days
Measurement: 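Imaged Hoechst DNA stain sorts each cell into a cycle phase by DNA amount; per plate, G2 fraction set to 0% for non-targeting and 100% for GMNN siRNA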
Direction: G2 robust z-score: higher = more G2 cells, more excess DNA replication
Call rule: 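Active siRNAs have a G2 robust z of 5 or more median absolute deviations over the median, which in these data means about 38% or higher of GMNN control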

gene symbol	reagent no.	G2 robust z-score	outcome
CSF2 (GeneID 1437)	1	3.7	inactive
CSF2 (GeneID 1437)	2	-0.56	inactive
CSF2 (GeneID 1437)	3	-0.402	inactive
KCNN1 (GeneID 3780)	1	-1.24	inactive
KCNN1 (GeneID 3780)	2	-0.378	inactive
KCNN1 (GeneID 3780)	3	-0.159	inactive
E2F7 (GeneID 144455)	1	0.143	inactive
E2F7 (GeneID 144455)	2	0.329	inactive
E2F7 (GeneID 144455)	3	0.0211	inactive
CD93 (GeneID 22918)	1	-1.03	inactive
CD93 (GeneID 22918)	2	0.615	inactive
CD93 (GeneID 22918)	3	-0.228	inactive
ELOF1 (GeneID 84337)	1	-0.0567	inactive
ELOF1 (GeneID 84337)	2	0.2	inactive
ELOF1 (GeneID 84337)	3	1.17	inactive
SLC35F2 (GeneID 54733)	1	2.9	inactive
SLC35F2 (GeneID 54733)	2	0.951	inactive
SLC35F2 (GeneID 54733)	3	-0.896	inactive
DNAJB13 (GeneID 374407)	1	4.35	inactive
DNAJB13 (GeneID 374407)	2	-0.617	inactive
DNAJB13 (GeneID 374407)	3	1.27	inactive
MICU2 (GeneID 221154)	1	0.857	inactive
MICU2 (GeneID 221154)	2	-0.399	inactive
MICU2 (GeneID 221154)	3	-0.531	inactive

4 entries from above, reformatted.
DNAJB13 (GeneID 374407) #3
- G2 robust z-score: 1.27
- outcome: inactive

MICU2 (GeneID 221154) #1
- G2 robust z-score: 0.857
- outcome: inactive

MICU2 (GeneID 221154) #2
- G2 robust z-score: -0.399
- outcome: inactive

MICU2 (GeneID 221154) #3
- G2 robust z-score: -0.531
- outcome: inactive

Further records follow:
gene symbol	reagent no.	G2 robust z-score	outcome
DNMT3A (GeneID 1788)	1	-0.747	inactive
DNMT3A (GeneID 1788)	2	1.55	inactive
DNMT3A (GeneID 1788)	3	2.15	inactive
SSX2IP (GeneID 117178)	1	-0.364	inactive
SSX2IP (GeneID 117178)	2	0.564	inactive
SSX2IP (GeneID 117178)	3	0.544	inactive
GAGE1 (GeneID 2543)	1	-0.821	inactive
GAGE1 (GeneID 2543)	2	0.602	inactive
GAGE1 (GeneID 2543)	3	1.72	inactive
PKHD1 (GeneID 5314)	1	-0.994	inactive
PKHD1 (GeneID 5314)	2	1.38	inactive
PKHD1 (GeneID 5314)	3	8.9	active
ZFP57 (GeneID 346171)	1	2.04	inactive
ZFP57 (GeneID 346171)	2	-0.842	inactive
ZFP57 (GeneID 346171)	3	-1.37	inactive
INO80C (GeneID 125476)	1	-1.11	inactive
INO80C (GeneID 125476)	2	-1.43	inactive
INO80C (GeneID 125476)	3	-0.392	inactive
MIR924HG (GeneID 647946)	1	-0.723	inactive
MIR924HG (GeneID 647946)	2	0.144	inactive
MIR924HG (GeneID 647946)	3	-0.254	inactive
CDAN1 (GeneID 146059)	1	2.21	inactive
CDAN1 (GeneID 146059)	2	0.196	inactive
CDAN1 (GeneID 146059)	3	-0.573	inactive
STYK1 (GeneID 55359)	1	-1.05	inactive
STYK1 (GeneID 55359)	2	-1	inactive
STYK1 (GeneID 55359)	3	4.28	inactive
TAGLN3 (GeneID 29114)	1	-0.819	inactive
TAGLN3 (GeneID 29114)	2	0.962	inactive
TAGLN3 (GeneID 29114)	3	0.232	inactive
OR4F15 (GeneID 390649)	1	-0.244	inactive
OR4F15 (GeneID 390649)	2	-0.0975	inactive
OR4F15 (GeneID 390649)	3	4.87	inactive
SLCO1B3 (GeneID 28234)	1	-0.42	inactive
SLCO1B3 (GeneID 28234)	2	0.666	inactive
SLCO1B3 (GeneID 28234)	3	2.87	inactive
IRGM (GeneID 345611)	1	-0.294	inactive
IRGM (GeneID 345611)	2	-0.305	inactive
IRGM (GeneID 345611)	3	0.756	inactive
FANK1 (GeneID 92565)	1	0.708	inactive
FANK1 (GeneID 92565)	2	-0.435	inactive
FANK1 (GeneID 92565)	3	0.276	inactive
FSTL1 (GeneID 11167)	1	2.01	inactive
FSTL1 (GeneID 11167)	2	-0.739	inactive
FSTL1 (GeneID 11167)	3	-0.711	inactive
